Our source for the binding values is paper PMC7734065.

Amino acid sequences for entries named in this document (tags omitted).
UniProt Q60765: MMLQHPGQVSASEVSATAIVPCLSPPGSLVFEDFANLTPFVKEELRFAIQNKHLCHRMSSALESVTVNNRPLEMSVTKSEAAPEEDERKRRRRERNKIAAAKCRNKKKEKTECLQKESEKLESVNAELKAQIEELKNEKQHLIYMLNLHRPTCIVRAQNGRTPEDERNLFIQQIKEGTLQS
UniProt P84022: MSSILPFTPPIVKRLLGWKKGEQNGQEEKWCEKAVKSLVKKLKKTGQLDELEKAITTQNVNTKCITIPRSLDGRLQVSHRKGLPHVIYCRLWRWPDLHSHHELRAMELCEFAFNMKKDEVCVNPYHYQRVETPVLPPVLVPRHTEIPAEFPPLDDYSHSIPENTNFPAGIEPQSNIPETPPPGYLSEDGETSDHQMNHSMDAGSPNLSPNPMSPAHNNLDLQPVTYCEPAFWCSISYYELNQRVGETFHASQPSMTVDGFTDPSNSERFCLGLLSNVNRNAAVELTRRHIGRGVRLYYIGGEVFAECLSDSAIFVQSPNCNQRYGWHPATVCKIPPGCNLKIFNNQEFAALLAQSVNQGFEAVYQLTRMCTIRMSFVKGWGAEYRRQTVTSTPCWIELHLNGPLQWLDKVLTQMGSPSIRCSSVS
UniProt Q8BUN5: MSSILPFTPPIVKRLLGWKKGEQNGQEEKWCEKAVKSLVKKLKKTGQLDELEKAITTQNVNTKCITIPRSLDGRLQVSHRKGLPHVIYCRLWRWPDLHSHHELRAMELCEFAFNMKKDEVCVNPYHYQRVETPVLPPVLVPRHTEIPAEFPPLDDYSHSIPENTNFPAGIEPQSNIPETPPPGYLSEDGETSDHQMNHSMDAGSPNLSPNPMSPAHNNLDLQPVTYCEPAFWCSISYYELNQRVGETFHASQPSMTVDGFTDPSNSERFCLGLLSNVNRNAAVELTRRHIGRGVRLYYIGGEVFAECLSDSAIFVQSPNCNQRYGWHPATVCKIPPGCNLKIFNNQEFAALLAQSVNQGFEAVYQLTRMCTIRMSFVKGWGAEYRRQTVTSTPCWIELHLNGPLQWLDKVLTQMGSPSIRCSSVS

Test [1] deals with T1, activating transcription factor 3 (ATF3) (human (endogenous in LX-2)) (UniProt P18847).
T1 sequence: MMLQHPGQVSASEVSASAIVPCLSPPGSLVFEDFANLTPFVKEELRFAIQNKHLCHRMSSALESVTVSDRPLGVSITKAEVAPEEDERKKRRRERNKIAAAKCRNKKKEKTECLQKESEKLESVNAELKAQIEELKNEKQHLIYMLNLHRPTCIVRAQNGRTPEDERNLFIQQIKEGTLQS
Kind of test: co-IP; ATF3 and SMAD3 antibodies used for co-immunoprecipitation with whole cell lysates of LX-2 cells treated with or without TGF-β; immunoblot. On the technique in general: A western blot detects proteins with antibodies after separation by electrophoresis.

Test [2] addresses T2, activating transcription factor 3 (ATF3), primary mouse HSCs (mouse (endogenous in primary HSCs)) (UniProt Q60765).
T2 sequence: T1 sequence with S17T, S68N, D69N, G73E, V74M, I76V, A79S, V81A, K90R
As to the kind of experiment: co-IP; co-immunoprecipitation in primary HSCs (Supplementary Fig. 10b); whole cell lysate, immunoblot.

Test [3] has as its target SMAD3 (human (endogenous in LX-2)) (UniProt P84022). As to the kind of experiment: co-IP; ATF3 and SMAD3 antibodies used for co-immunoprecipitation with whole cell lysates of LX-2 cells treated with or without TGF-β; immunoblot.
Test [4] deals with SMAD3, primary mouse HSCs (mouse (endogenous in primary HSCs)) (UniProt Q8BUN5). As to the kind of experiment: co-IP; co-immunoprecipitation in primary HSCs (Supplementary Fig. 10b); whole cell lysate, immunoblot.

Positions count from the first letter of the chain named. Results are given in words; binding and its absence hold for the method and conditions named. Binding seen in cells or lysates may run through a third protein. Some results given as binding are weak or reduced against the parent protein; the word gives no strength.

On to SMAD3 (from UniProt P84022 1-425), for which, in test [1], the binding entry is recorded as “binds”. Turning to “SMAD3, primary mouse HSCs (from UniProt Q8BUN5 1-425)”, the binding entry in test [2] is given as “binds”.

B1: activating transcription factor 3 (ATF3) (protein, UniProt P18847 1-181)
chain: T1 sequence
Take B1: the binding entry in test [3] was “binds”.

B2: activating transcription factor 3 (ATF3), primary mouse HSCs (protein, UniProt Q60765 1-181)
chain: T1 sequence with S17T, S68N, D69N, G73E, V74M, I76V, A79S, V81A, K90R
In the case of B2, the binding entry in test [4] was “binds”.
